PMC9007350, “Aurintricarboxylic acid is a canonical disruptor of the TAZ-TEAD transcriptional complex” (PLoS ONE, 2022)
The source gives many values for each of these; only a part stands here.

Tested on: TC/TEAD transcriptional profile in TC-expressing NIH3T3 cells
Experiment: Bulk RNA-Seq, differential gene expression and GSEA (TC ATA v. TC DMSO)
Format: cell-based, murine
Conditions: TC ATA v. TC DMSO
Description: NIH3T3 and HEK293 cells were obtained from the American Type Tissue Collection (ATCC, Manassas, VA) and cultured in DMEM containing 10% fetal bovine serum and penicillin/streptomycin. A TEAD dual luciferase reporter assay was performed as previously described. Cells were treated with vehicle control or ATA (10 μM) for 48 h before measuring the luciferase activity or processing the samples for RNA extraction. Each experiment was repeated at least 2-3 times. NIH3T3 cells were used. The extracted RNA (RNeasy Mini, Qiagen) from treated cells was either used for qPCR measurements or sent for bulk RNA-Seq. Sequencing runs were performed on an Illumina HiSeq 4000 sequencer (Genewiz). Subsequent bioinformatics analysis was performed in the Galaxy Project platform. Paired end reads were aligned to the murine genome ([…]2 [27]. Raw count files were generated with featureCounts using a corresponding GTF reference. Differential gene expression analysis was performed with DESeq2 [29]. Transcripts were considered to be differentially expressed if the false discovery rate < 0.05 and Log2FC > 2. When performing differential gene expression for GSEA analysis, the Limma package was used (<5 CPM filtering) with t-scores used for rank statistics. GSEA plots and statistics were generated with FGSEA with custom gene sets. Raw sequencing reads and processed files have been deposited in the GEO repository (data will be uploaded upon manuscript acceptance). The Universal Probe Library probes (Roche) and the associated primer sequences for the qPCR targets are listed below: […]

Structure (SMILES): O=C(O)C1=CC(=C(c2ccc(O)c(C(=O)O)c2)c2ccc(O)c(C(=O)O)c2)C=CC1=O [ATA, aurintricarboxylic acid]
- Log2 Fold Change (gene Etv5): -0.424
- Log2 Fold Change (gene F3): 0.7181
- Log2 Fold Change (gene Faim2): 0.686
- Log2 Fold Change (gene Fam13a): 0.7432
- Log2 Fold Change (gene Fam72a): -0.4503
- Log2 Fold Change (gene Fam168a): 0.2462
- Log2 Fold Change (gene Fam185a): -0.3602
- Log2 Fold Change (gene Fap): 1.127
- Log2 Fold Change (gene Fat4): 1.161
- Log2 Fold Change (gene Fbxl20): 0.4357
- Log2 Fold Change (gene Fcgrt): 0.6784
- Log2 Fold Change (gene Fez1): -0.4591
- Log2 Fold Change (gene Fgd4): -0.6665
- Log2 Fold Change (gene Fgf2): -0.4873
- Log2 Fold Change (gene Fgf10): 0.5355
- Log2 Fold Change (gene Fhl1): 0.813
- Log2 Fold Change (gene Fig4): 0.3382
- Log2 Fold Change (gene Filip1l): 0.2972
- Log2 Fold Change (gene Fip1l1): -0.1961
- Log2 Fold Change (gene Fkbp4): -0.1887
- Log2 Fold Change (gene Fkbp14): 0.3983
- Log2 Fold Change (gene Flrt2): -0.4337
- Log2 Fold Change (gene Flt1): 0.3634
- Log2 Fold Change (gene Fmn1): 0.4709
- Log2 Fold Change (gene Fmod): 1.646
- Log2 Fold Change (gene Fnbp1): 0.3623
- Log2 Fold Change (gene Fos): 1.593
- Log2 Fold Change (gene Fosl1): -0.3528
- Log2 Fold Change (gene Foxc2): -0.4836
- Log2 Fold Change (gene Frmd4a): -0.2962
- Log2 Fold Change (gene Ftl1): 0.2585
- Log2 Fold Change (gene Fubp1): -0.2103
- Log2 Fold Change (gene Fuca1): 0.3144
- Log2 Fold Change (gene Fxyd1): 0.8951
- Log2 Fold Change (gene Fzd1): 0.5325
- Log2 Fold Change (gene Fzd5): -0.4461
- Log2 Fold Change (gene Gabarap): 0.309
- Log2 Fold Change (gene Galk2): 0.3816
- Log2 Fold Change (gene Galnt10): 0.2542
- Log2 Fold Change (gene Galnt18): 0.3573
- Log2 Fold Change (gene Gas6): 0.4148
- Log2 Fold Change (gene Gatm): -0.9516
- Log2 Fold Change (gene Gclc): 0.2433
- Log2 Fold Change (gene Gdnf): -0.3219
- Log2 Fold Change (gene Gdpd2): 1.574
- Log2 Fold Change (gene Gem): 0.6083
- Log2 Fold Change (gene Gemin5): -0.2732
- Log2 Fold Change (gene Gfra1): -0.6194
- Log2 Fold Change (gene Ghr): 0.4181
- Log2 Fold Change (gene Gja1): -0.3185
- Log2 Fold Change (gene Gjb3): -0.4357
- Log2 Fold Change (gene Gm2383): 1.428
- Log2 Fold Change (gene Gm4518): 0.9557
- Log2 Fold Change (gene Gm4795): 1.427
- Log2 Fold Change (gene Gm4835): 1.084
- Log2 Fold Change (gene Gm6043): 1.139
- Log2 Fold Change (gene Gm7399): 0.7595
- Log2 Fold Change (gene Gm7993): -0.4096
- Log2 Fold Change (gene Gm10110): -0.2483
- Log2 Fold Change (gene Gm12840): 0.7884
- Log2 Fold Change (gene Gm12966): 0.4386
- Log2 Fold Change (gene Gm17501): 0.3061
- Log2 Fold Change (gene Gm20186): 0.674
- Log2 Fold Change (gene Gm28661): 0.4284
- Log2 Fold Change (gene Gm42743): 1.449
- Log2 Fold Change (gene Gm42979): -0.7369
- Log2 Fold Change (gene Gm44777): -0.8489
- Log2 Fold Change (gene Gnb4): -0.3878
- Log2 Fold Change (gene Gng11): 0.4255
- Log2 Fold Change (gene Gpat3): -0.3475
- Log2 Fold Change (gene Gpnmb): 0.9926
- Log2 Fold Change (gene Gpr176): 0.2333
- Log2 Fold Change (gene Gprc5a): -0.2591
- Log2 Fold Change (gene Gpx1): -0.446
- Log2 Fold Change (gene Grb14): -0.4173
- Log2 Fold Change (gene Grn): 0.3053
- Log2 Fold Change (gene Gstm2): 0.6705
- Log2 Fold Change (gene Gsto2): -0.4535
- Log2 Fold Change (gene H1f2): 0.6052
- Log2 Fold Change (gene H2-Q4): 0.4936
- Log2 Fold Change (gene H2bc4): 0.7374
- Log2 Fold Change (gene H4c9): 0.7269
- Log2 Fold Change (gene Hacd2): 0.3072
- Log2 Fold Change (gene Hba-a1): 1.35
- Log2 Fold Change (gene Hdac5): 0.2652
- Log2 Fold Change (gene Heatr1): -0.2941
- Log2 Fold Change (gene Hfe): 0.6813
- Log2 Fold Change (gene Hic1): -0.2341
- Log2 Fold Change (gene Hip1): 0.3247
- Log2 Fold Change (gene Hk2): -0.3363
- Log2 Fold Change (gene Hlf): -0.7573
- Log2 Fold Change (gene Hmcn2): 0.8604
- Log2 Fold Change (gene Hmga1): -0.5179
- Log2 Fold Change (gene Hmga2): -0.4615
- Log2 Fold Change (gene Hmgcl): 0.242
- Log2 Fold Change (gene Hrc): 0.5233
- Log2 Fold Change (gene Hrh2): 1.131
- Log2 Fold Change (gene Hspa1b): 0.3565
- Log2 Fold Change (gene Hspb1): -0.6806
- Log2 Fold Change (gene Hspb6): 0.5505
- Log2 Fold Change (gene Htra3): 1.172
- Log2 Fold Change (gene Iars): -0.1916
- Log2 Fold Change (gene Id2): 0.8422
- Log2 Fold Change (gene Id4): 1.169
- Log2 Fold Change (gene Idh1): 0.5659
- Log2 Fold Change (gene Ifi27): 0.3321
- Log2 Fold Change (gene Ifitm3): 0.5415
- Log2 Fold Change (gene Ifrd2): -0.3152
- Log2 Fold Change (gene Igf1): 0.6117
- Log2 Fold Change (gene Igfbp2): -1.024
- Log2 Fold Change (gene Igfbp5): -0.6348
- Log2 Fold Change (gene Igfbp7): 0.6078
- Log2 Fold Change (gene Iglon5): 0.2843
- Log2 Fold Change (gene Igsf10): 0.8881
- Log2 Fold Change (gene Ikzf2): 0.8994
- Log2 Fold Change (gene Il1rap): -0.3094
- Log2 Fold Change (gene Il1rl1): -0.4998
- Log2 Fold Change (gene Il15ra): -0.4837
- Log2 Fold Change (gene Il18): 0.8015
- Log2 Fold Change (gene Impact): 0.3705
- Log2 Fold Change (gene Impdh2-ps): -0.2275
- Log2 Fold Change (gene Inpp5a): 0.2235
- Log2 Fold Change (gene Insig1): 0.222
- Log2 Fold Change (gene Iqgap3): -0.2957
- Log2 Fold Change (gene Irf5): 1.172
- Log2 Fold Change (gene Itga8): 0.8354
- Log2 Fold Change (gene Itga11): 1.206
- Log2 Fold Change (gene Itgb5): 0.3445
- Log2 Fold Change (gene Itgb7): -0.4787
- Log2 Fold Change (gene Itm2b): 0.3071
- Log2 Fold Change (gene Itpr2): 0.4213
- Log2 Fold Change (gene Jade1): 0.3235
- Log2 Fold Change (gene Jun): -0.2996
- Log2 Fold Change (gene Junb): 0.4133
- Log2 Fold Change (gene Kank1): 0.4062
- Log2 Fold Change (gene Kank3): -0.6814
- Log2 Fold Change (gene Kazald1): 0.8401
- Log2 Fold Change (gene Kbtbd7): 0.5869
- Log2 Fold Change (gene Kcnab3): -0.6117
- Log2 Fold Change (gene Kdelr3): 0.2731
- Log2 Fold Change (gene Kif2a): -0.1966
- Log2 Fold Change (gene Kif6): 0.5733
- Log2 Fold Change (gene Kif26b): 0.619
- Log2 Fold Change (gene Kirrel3): -0.8006
- Log2 Fold Change (gene Klf2): 0.5059
- Log2 Fold Change (gene Klf3): 0.2097
- Log2 Fold Change (gene Krt13): 0.6224
- Log2 Fold Change (gene Krt80): -0.2808
- Log2 Fold Change (gene Lamb1): -0.2993
- Log2 Fold Change (gene Lamp2): 0.3342
- Log2 Fold Change (gene Ldb3): 0.5967
- Log2 Fold Change (gene Lgalsl): 0.1915
- Log2 Fold Change (gene Lgmn): 0.1929
- Log2 Fold Change (gene Lgr6): -1.074
- Log2 Fold Change (gene Lima1): 0.3371
- Log2 Fold Change (gene Lipe): 0.3942
- Log2 Fold Change (gene Lix1l): 0.2896
- Log2 Fold Change (gene Lmod1): 0.9334
- Log2 Fold Change (gene Lmod3): 0.8146
- Log2 Fold Change (gene Lox): 0.2998
- Log2 Fold Change (gene Lpar1): 0.276
- Log2 Fold Change (gene Lpin1): 0.3626
- Log2 Fold Change (gene Lrrc8c): -0.2592
- Log2 Fold Change (gene Lrrc17): 0.4583
- Log2 Fold Change (gene Lrrc75b): 1.131
- Log2 Fold Change (gene Lrrfip1): -0.2832
- Log2 Fold Change (gene Lrwd1): -0.204
- Log2 Fold Change (gene Lurap1l): 0.3734
- Log2 Fold Change (gene Lvrn): 0.5306
- Log2 Fold Change (gene Lxn): 0.6784
- Log2 Fold Change (gene Ly6c1): 1.036
- Log2 Fold Change (gene Lynx1): 0.3893
- Log2 Fold Change (gene Lyrm7): 0.9256
- Log2 Fold Change (gene Lyz2): 0.7637
- Log2 Fold Change (gene Macrod1): 0.3911
- Log2 Fold Change (gene Maf): 0.6697
- Log2 Fold Change (gene Maff): -0.3326
- Log2 Fold Change (gene Mafk): -0.2157
- Log2 Fold Change (gene Maged2): 0.3246
- Log2 Fold Change (gene Mamdc2): 0.7056
- Log2 Fold Change (gene Man1c1): 0.3605
- Log2 Fold Change (gene Mapk6): -0.3408
- Log2 Fold Change (gene Masp1): 0.5504
- Log2 Fold Change (gene Mast4): -0.2941
- Log2 Fold Change (gene Mat2b): 0.2814
- Log2 Fold Change (gene Matn2): 0.596
- Log2 Fold Change (gene Mb): 1.291
- Log2 Fold Change (gene Mboat1): -0.4553
- Log2 Fold Change (gene Mef2c): 0.4908
- Log2 Fold Change (gene Megf9): 0.2583
- Log2 Fold Change (gene Met): -0.2733
- Log2 Fold Change (gene Mettl27): 0.3928
- Log2 Fold Change (gene Mgp): 0.971
- Log2 Fold Change (gene Mindy2): 0.4845
- Log2 Fold Change (gene Mmp14): 0.4309
- Log2 Fold Change (gene Mmp19): 0.7302
- Log2 Fold Change (gene Mpp1): 0.2306
- Log2 Fold Change (gene Mpz): 1.0955
- Log2 Fold Change (gene Mr1): 0.5676
- Log2 Fold Change (gene Mrpl38): -0.2105
- Log2 Fold Change (gene Ms4a4d): 0.4769
- Log2 Fold Change (gene Msln): -0.9365
- Log2 Fold Change (gene Msn): -0.1996
- Log2 Fold Change (gene Msrb3): 0.2807
- Log2 Fold Change (gene Mtcl1): -0.2994
- Log2 Fold Change (gene Mthfd1): -0.2489
- Log2 Fold Change (gene Mthfd2): -0.2278
- Log2 Fold Change (gene Mtss2): 0.3543
- Log2 Fold Change (gene Mtus2): 0.9392
- Log2 Fold Change (gene Mustn1): 0.7761
- Log2 Fold Change (gene Mxd4): 0.8515
- Log2 Fold Change (gene Mxra8): 0.5226
- Log2 Fold Change (gene Mybbp1a): -0.2644
- Log2 Fold Change (gene Myc): -0.2262
- Log2 Fold Change (gene Myd88): 0.3237
- Log2 Fold Change (gene Myh1): 1.101
- Log2 Fold Change (gene Myh2): 1.365
- Log2 Fold Change (gene Myh7): 1.309
- Log2 Fold Change (gene Myh11): 1.121
- Log2 Fold Change (gene Myl2): 1.786
- Log2 Fold Change (gene Myl9): 1.182
- Log2 Fold Change (gene Mylip): 0.2657
- Log2 Fold Change (gene Mylk2): 0.5639
- Log2 Fold Change (gene Myo18a): 0.3328
